Laboratory results reported in article PMC4703863.
For at least one entry, the source does not settle the construct or the ends of the probe. For some of these results: Negatives hold for the conditions tested. For some of these results: At least one verdict was read from the data and is not stated in words by the source.

Amino acid sequences for entries named in this document (tags omitted). A change or cut given only in a name is not applied to a line headed by its entry.
UniProt Q9GZX7: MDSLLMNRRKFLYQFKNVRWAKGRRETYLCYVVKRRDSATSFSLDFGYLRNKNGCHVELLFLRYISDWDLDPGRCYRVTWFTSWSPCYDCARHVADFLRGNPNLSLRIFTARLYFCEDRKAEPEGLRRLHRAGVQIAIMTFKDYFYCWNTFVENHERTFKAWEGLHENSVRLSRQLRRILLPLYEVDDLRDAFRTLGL

What was measured:
[1] = target: GST-AID-His6 (Cy5-labelled) (UniProt Q9GZX7); test: smFRET; settings: Transcription-scanning buffer: 40 mM Tris-HCl pH 7.9, 5 mM Mg2+, 60 mM Na+, 0.2 mg/ml BSA, 2 mM Trolox, PCA/PCD, 0.5-5 nM RNAP, recombinant protein, protein details: N-terminal GST, C-terminal His6, Cy5-OEG-trisNTA
[2] = system: GST-AID-His6 (Cy5-labelled) + His6-T7 RNA polymerase; test: smFRET co-localization; settings: Cy3-RNAP and Cy5-AID, unlabelled DNA, no direct AID-RNAP contact; Transcription-scanning buffer: 40 mM Tris-HCl pH 7.9, 5 mM Mg2+, 60 mM Na+, 0.2 mg/ml BSA, 2 mM Trolox, PCA/PCD; 0.5-5 nM RNAP, 20 nM AID; recombinant protein; label: 5'-biotin strand 1, 5'-Cy3 strand 2
[3] = system: GST-AID-His6 (Cy5-labelled) + His6-T7 RNA polymerase; test: smFRET; settings: Transcription-scanning buffer: 40 mM Tris-HCl pH 7.9, 5 mM Mg2+, 60 mM Na+, 0.2 mg/ml BSA, 2 mM Trolox, PCA/PCD, 0.5-5 nM RNAP, 20 nM AID, recombinant protein, label: 5'-biotin strand 1, 5'-Cy3 strand 2
[4] = mean residence ~4 min, 20 nM …, label: 5'-Cy3 and 3'-biotin on anchor strand

## CAGAGATGCAGCCGTCCGTATCCGTATTGTAGAAAAGGGGAAAGCAAAGAGGAAAGGTGAGGAGGT (double strand) [No-promoter dsDNA 66-mer]
[1]; RNAP present, 20 nM AID, label: 5'-biotin strand 1, 5'-Cy3 strand 2
  binding result: no binding

## CCCTACATCCATTCCTCGCGTTTTTTTTTTTTTTTAACAGCAACTTTTTTTTTTTTTTTTTTTTTTTTTTTTGACGACGACTTTTTTTTTTT / CGCGAGGAATGGATGTAGGG [pdT 5' (WRC)3 3' (GAC)3]
[1]; [4]
  binding result: binds

## CCCTACATCCATTCCTCGCGTTTTTTTTTTTTTTTAACTTTTTTTTTTTTTTTTTTTTTTTTTTTTTTTTTTTTTTTTTTTTTTTTTTTTTT / CGCGAGGAATGGATGTAGGG [pdT 5' AAC (hot motif)]
[1]; low salt, 20 nM AID, label: 5'-Cy3 and 3'-biotin on anchor strand
  binding result: binds
[1]; [4]
  binding result: binds

## CCCTACATCCATTCCTCGCGTTTTTTTTTTTTTTTAAUTTTTTTTTTTTTTTTTTTTTTTTTTTTTTTTTTTTTTTTTTTTTTTTTTTTTTT / CGCGAGGAATGGATGTAGGG [pdT 5' AAU (product motif)]
[1]; mean residence ~4 min, dU, 20 nM AID, label: 5'-Cy3 and 3'-biotin on anchor strand
  binding result: binds

## CCCTACATCCATTCCTCGCGTTTTTTTTTTTTTTTGACGACGACTTTTTTTTTTTTTTTTTTTTTTTTTTTTAACAGCAACTTTTTTTTTTT / CGCGAGGAATGGATGTAGGG [pdT 5' (GAC)3 3' (WRC)3]
[1]; [4]
  binding result: binds

## CCCTACATCCATTCCTCGCGTTTTTTTTTTTTTTTGACTTTTTTTTTTTTTTTTTTTTTTTTTTTTTTTTTTTTTTTTTTTTTTTTTTTTTT / CGCGAGGAATGGATGTAGGG [pdT 5' GAC (non-hot motif)]
[1]; [4]
  binding result: binds

## CCCTACATCCATTCCTCGCGTTTTTTTTTTTTTTTTTTTTTTTTTTTTTTTTTTTTTTTTTTTTTTTTTTTTTTTTTTTTTTTTTTTTTTTT / CGCGAGGAATGGATGTAGGG [pdT (no motif)]
[1]; [4]
  binding result: binds

## TTTCAGAGATGCATAATACGACTCACTATAGGGAGAAAAGGGGAAAGCAAAGAGGAAAGGTGAGGAGGT / ACCTCCTCACCTTTCCTCAAAAAAAACCCCTTTTCTCCCTATAGTGAGTCGTATTATGCATCTCTG [8-nt bubble dsDNA]
[1]; bound up to ~250 s, 20 nM AID, label: 5'-biotin strand 1, 5'-Cy3 strand 2
  binding result: binds

## TTTCAGAGATGCATAATACGACTCACTATAGGGAGAAAAGGGGAAAGCAAAGAGGAAAGGTGAGGAGGT / ACCTCCTCACCTTTCCTCTTTGCTTTCCCCTTTTCTCCCTATAGTGAGTCGTATTATGCATCTCTG [69/66-mer T7 promoter dsDNA (promoter 39 bp from Cy3 end)]
[2]
  binding result: binds
[3]; no NTPs, static promoter binding ~0.2 FRET
  binding result: binds
[3]; with NTPs, PB, MB and SB classes
  binding result: binds
[1]; no RNAP, 20 nM AID, 20 nM AID, label: 5'-biotin strand 1, 5'-Cy3 strand 2
  binding result: no binding
